Some of the results follow.
Assays:
Experiment in all cases: glycan array binding signal (z-score within array); higher = stronger binding
Details in all cases: glycan notation: IUPAC condensed, linker removed
[1] = target: GlcNAc(b1-3)Man
How it was run: (§1)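 Arrays were curated from the Consortium for Functional Glycomics database, 3228 in total, and kept only where the protein sequence was available. Binding is expressed as a within-array Z-score. This score was averaged across arrays of the same protein sequence at different concentrations or buffers and across linkers, and negative values can be read as non-binding.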

[2] = target: GlcNAc(b1-3)[GlcNAc(b1-4)][GlcNAc(b1-6)]GlcNAc
How it was run: as §1

[3] = target: GlcNAc(b1-3)[GlcNAc(b1-6)]Gal(b1-4)GlcNAc
How it was run: as §1

[4] = target: GlcNAc(b1-3)[GlcNAc(b1-6)]GalNAc
How it was run: as §1

[5] = target: GlcNAc(b1-4)Gal(b1-4)GlcNAc
How it was run: as §1

[6] = target: GlcNAc(b1-4)GlcNAc
How it was run: as §1

[7] = target: GlcNAc(b1-4)GlcNAc(b1-4)GlcNAc
How it was run: as §1

[8] = target: GlcNAc(b1-4)GlcNAc(b1-4)GlcNAc(b1-4)GlcNAc(b1-4)GlcNAc
How it was run: as §1

[9] = target: GlcNAc(b1-4)GlcNAc(b1-4)GlcNAc(b1-4)GlcNAc(b1-4)GlcNAc(b1-4)GlcNAc
How it was run: as §1

[10] = target: GlcNAc(b1-4)[GlcNAc(b1-6)]GalNAc
How it was run: as §1

[11] = target: GlcNAc(b1-6)Gal(b1-4)GlcNAc
How it was run: as §1

[12] = target: GlcNAc(b1-6)GalNAc
How it was run: as §1

[13] = target: GlcNAc6S(b1-3)Gal(b1-4)GlcNAc
How it was run: as §1

[14] = target: Kdn(a2-3)Gal(b1-3)GalNAc
How it was run: as §1

[15] = target: Kdn(a2-3)Gal(b1-3)GlcNAc
How it was run: as §1

[16] = target: Kdn(a2-3)Gal(b1-4)Glc
How it was run: as §1

[17] = target: Kdn(a2-3)Gal(b1-4)GlcNAc
How it was run: as §1

[18] = target: Kdn(a2-3)Gal(b1-4)[Fuc(a1-3)]GlcNAc
How it was run: as §1

[19] = target: Kdn(a2-6)Gal(b1-4)GlcNAc
How it was run: as §1

[20] = target: Man(a1-2)Man(a1-2)Man(a1-3)Man
How it was run: as §1

[21] = target: Man(a1-2)Man(a1-2)Man(a1-6)[Man(a1-3)]Man
How it was run: as §1

[22] = target: Man(a1-2)Man(a1-3)Man
How it was run: as §1

[23] = target: Man(a1-2)Man(a1-3)[Man(a1-2)Man(a1-6)]Man
How it was run: as §1

[24] = target: Man(a1-2)Man(a1-3)[Man(a1-2)Man(a1-6)]Man(a1-6)[Man(a1-2)Man(a1-2)Man(a1-3)]Man
How it was run: as §1

[25] = target: Man(a1-2)Man(a1-3)[Man(a1-2)Man(a1-6)]Man(a1-6)[Man(a1-2)Man(a1-2)Man(a1-3)]Man(b1-4)GlcNAc(b1-4)GlcNAc
How it was run: as §1

[26] = target: Man(a1-2)Man(a1-3)[Man(a1-6)]Man(a1-6)[Man(a1-2)Man(a1-3)]Man(b1-4)GlcNAc(b1-4)GlcNAc
How it was run: as §1

[27] = target: Man(a1-2)Man(a1-6)[Man(a1-3)]Man(a1-6)[Man(a1-2)Man(a1-2)Man(a1-3)]Man
How it was run: as §1

[28] = target: Man(a1-2)Man(a1-6)[Man(a1-3)]Man(a1-6)[Man(a1-2)Man(a1-2)Man(a1-3)]Man(b1-4)GlcNAc(b1-4)GlcNAc
How it was run: as §1

[29] = target: Man(a1-3)[Man(a1-6)]Man
How it was run: as §1

[30] = target: Man(a1-3)[Man(a1-6)]Man(a1-6)[Man(a1-2)Man(a1-3)]Man(b1-4)GlcNAc(b1-4)GlcNAc
How it was run: as §1

[31] = target: Man(a1-3)[Man(a1-6)]Man(a1-6)[Man(a1-3)]Man
How it was run: as §1

[32] = target: Man(a1-3)[Man(a1-6)]Man(a1-6)[Man(a1-3)]Man(b1-4)GlcNAc(b1-4)GlcNAc
How it was run: as §1

[33] = target: Man(a1-3)[Man(a1-6)]Man(b1-4)GlcNAc(b1-4)GlcNAc
How it was run: as §1

[34] = target: Man(a1-3)[Man(a1-6)]Man(b1-4)GlcNAc(b1-4)[Fuc(a1-6)]GlcNAc
How it was run: as §1

[35] = target: Man(a1-6)Man
How it was run: as §1

[36] = target: Man(b1-4)GlcNAc
How it was run: as §1

[37] = target: MurNAc(b1-4)GlcNAc
How it was run: as §1

[38] = target: Neu5Ac(a2-3)Gal
How it was run: as §1

B1: his-Lectin-24A (Drosophila melanogaster) (protein)
chain: MFRLSVLVLNLLLVSHEFSAGTAKIEIQPLPALCNGYCFPTLKPVMEYVAIHQDKWNTCTEILANEARKDQIQLNIQLDALKADVSNIKASQLSKDEKLDRMEREQFAMHESLETINRYLTVKLDRTKLQLEAIKNTMDYMKAQMDGYFSAINGVQCLQPGFEKIGDRYFYIEEDVELNWLDAQAKCRRMGGHLASIKTKQEFDAIVEKLDDSKSYFLGVNENTKTGDFVSAASGKSCLYHEWGPGEPHHNNDQERCVSILRKLMHVGNCTYEKRFICQYGI
glycan array binding signal (z-score) [1]: -0.281 | glycan array binding signal (z-score) [2]: -0.274 | glycan array binding signal (z-score) [3]: 1.02 | glycan array binding signal (z-score) [4]: -0.388 | glycan array binding signal (z-score) [5]: 0.354 | glycan array binding signal (z-score) [6]: 0.757 | glycan array binding signal (z-score) [7]: 0.684 | glycan array binding signal (z-score) [8]: 0.406 | glycan array binding signal (z-score) [9]: -0.433 | glycan array binding signal (z-score) [10]: 0.423 | glycan array binding signal (z-score) [11]: 0.608 | glycan array binding signal (z-score) [12]: 0.138 | glycan array binding signal (z-score) [13]: -0.677 | glycan array binding signal (z-score) [14]: 0.552 | glycan array binding signal (z-score) [15]: 1.42 | glycan array binding signal (z-score) [16]: 0.232 | glycan array binding signal (z-score) [17]: 1.1 | glycan array binding signal (z-score) [18]: 0.638 | glycan array binding signal (z-score) [19]: -0.061 | glycan array binding signal (z-score) [20]: -0.705 | glycan array binding signal (z-score) [21]: 0.378 | glycan array binding signal (z-score) [22]: 0.131 | glycan array binding signal (z-score) [23]: -0.589 | glycan array binding signal (z-score) [24]: 0.072 | glycan array binding signal (z-score) [25]: -0.614 | glycan array binding signal (z-score) [26]: -1.11 | glycan array binding signal (z-score) [27]: -0.36 | glycan array binding signal (z-score) [28]: -0.052 | glycan array binding signal (z-score) [29]: 0.162 | glycan array binding signal (z-score) [30]: -0.205 | glycan array binding signal (z-score) [31]: -0.238 | glycan array binding signal (z-score) [32]: -0.742 | glycan array binding signal (z-score) [33]: 0.594 | glycan array binding signal (z-score) [34]: 0.619 | glycan array binding signal (z-score) [35]: -0.73 | glycan array binding signal (z-score) [36]: 1.1 | glycan array binding signal (z-score) [37]: -0.281 | glycan array binding signal (z-score) [38]: -1.44
